Results published in the supplement of paper PMC12823440, “Inhibitors supercharge kinase turnover through native proteolytic circuits” (Nature, 2025).
Counter-ions that a name gives are not always drawn. The list shows a part of the results. Hit calls seldom repeat between salt and free forms of one compound.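 Kinases, fused to nanoluciferase, were expressed in K562 cells; luminescence was measured every 4 h from 2 to 18 h as percent of control (DMSO = 100%, positive control = 0%). A time point is decreased if signal falls significantly (2 sigma). Hits were called by the authors by a rule that is not shown; the count of time points alone does not decide it.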

Chains of the proteins cited; added tags and fusions are not shown. Lines headed by an entry give the natural chain unless they say otherwise; changes in a name come on top.
UniProt Q9BUB5: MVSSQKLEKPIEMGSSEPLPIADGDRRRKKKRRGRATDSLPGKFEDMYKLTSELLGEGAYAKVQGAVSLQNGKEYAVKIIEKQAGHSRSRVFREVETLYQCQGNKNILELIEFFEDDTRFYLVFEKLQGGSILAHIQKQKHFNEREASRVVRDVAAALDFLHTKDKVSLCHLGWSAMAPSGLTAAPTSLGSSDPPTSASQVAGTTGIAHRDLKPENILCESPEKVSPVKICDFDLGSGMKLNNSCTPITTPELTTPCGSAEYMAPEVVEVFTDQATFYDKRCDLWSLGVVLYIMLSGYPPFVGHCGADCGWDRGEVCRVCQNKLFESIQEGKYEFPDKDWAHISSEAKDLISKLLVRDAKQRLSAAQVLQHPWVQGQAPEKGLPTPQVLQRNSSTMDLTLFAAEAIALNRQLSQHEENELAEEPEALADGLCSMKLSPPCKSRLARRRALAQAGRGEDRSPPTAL

target: MKNK1 (UniProt Q9BUB5); assay: kinase-Nluc reporter destabilization hit call (1 = scored as downregulated) (binary); higher = compound decreases kinase abundance; conditions: K562; 2-18 h

kinase-Nluc reporter destabilization hit call, inactive:
Cn1cc(Nc2nccc(N3C[C@H]4CC[C@@H](C3)N4C(=O)[C@@H]3CC3(F)F)n2)cn1 (10 µM) 0, CC(C)=CC(=O)CCC(=O)N1CCN(Cc2cc3nc(-c4cccc5[nH]ncc45)nc(N4CCOCC4)c3s2)CC1 (10 µM) 0, CN(C)CCN(Cc1ccc(Cl)cc1)c1ccccn1 [Chloropyramine hydrochloride] (10 µM) 0, COc1cc([N+](=O)[O-])ccc1S(=O)(=O)N1C[C@@H](CN2CCN(c3ccccn3)CC2)[C@H](c2cccc(F)c2)C1 (relative stereo) (10 µM) 0, Cc1noc(C)c1-c1ccc(-c2cc(C(N)=O)c(NC(N)=O)s2)c(O[C@H]2CCNC2)c1 (10 µM) 0, CC(C)(C)NC(=O)c1cncn1C1CCN(c2ccc(-c3nnc(C(F)(F)F)o3)cn2)CC1 (10 µM) 0, COc1cccc(-n2c(=O)[nH]c3cc(Cl)n(-c4ccc(-c5cccc(OC)c5O)cc4)c3c2=O)c1 (2.5 µM) 0, O=C(Nc1cccnc1)c1cc(C(=O)c2c(F)cccc2Br)c[nH]1 (10 µM) 0, O=C(Nc1cc(Oc2cc(F)c(NC(=O)C3(C(=O)Nc4ccc(F)cc4)CC3)cc2F)ccn1)C1CC1 [Altiratinib] (10 µM) 0, O=C1NC(=O)C(=Cc2ccc(-c3ccc(F)cc3)o2)S1 (stereo in doubt) (10 µM) 0, O=C(NC(NC(=S)Nc1ccc(F)c([N+](=O)[O-])c1)C(Cl)(Cl)Cl)C(c1ccccc1)c1ccccc1 (stereo unspecified) (10 µM) 0, Nc1ncnc2c1ncn2[C@@H]1O[C@H](CO)C[C@H]1O [Cordycepin] (10 µM) 0, CC(C)(NS(=O)(=O)c1ccc2c(Cl)cnc(N=C(N)N)c2c1)C(=O)O (10 µM) 0, COc1cc2ncnc(Nc3cccc(Cl)c3)c2cc1OC (10 µM) 0, CCOc1ccc(C(=O)Nc2ncc([N+](=O)[O-])s2)cc1 (10 µM) 0, CC(C)CN[C@H]1CS(=O)(=O)C[C@@H]1S(=O)(=O)c1ccc(Cl)cc1 (10 µM) 0, CCn1c(=O)c(-c2ccc(-c3cncs3)cc2Cl)cc2cnc(Nc3ccc(N4CCN(C)CC4)cc3)nc21 (2.5 µM) 0, C[C@]1(O)CCC[C@@H]1n1c(=O)c(C(F)F)cc2cnc(NC3CCN(S(C)(=O)=O)CC3)nc21 (10 µM) 0, COc1c(NC(=O)C(=O)c2ccc(OCCN3CCOCC3)c3ccccc23)cc(C(C)(C)C)cc1NS(C)(=O)=O (2.5 µM) 0, COc1cc(S(C)(=O)=O)ccc1Nc1nc2ccc(-c3ccc(NC(=O)[C@H](C)c4ccc(F)cc4)cc3)cn2n1 [Empesertib] (10 µM) 0, Nc1cc(Nc2ccc(S(N)(=O)=O)cc2)ncn1 (10 µM) 0, O=C(O)c1cc(O)ccc1O [2,5-Dihydroxybenzoic acid] (10 µM) 0, OCCNC1CCCc2c1[nH]c1ccc(-c3ccccc3)cc21 (stereo unspecified) (2.5 µM) 0, CC(C)CC1(O)CCN(C(=O)c2ccc(NS(=O)(=O)c3cccc4nccnc34)cc2)CC1 (10 µM) 0, CNC(=O)c1ccc(-c2cnc3cnc(C(=O)N(C)c4ccc(Cl)cc4)cn23)cc1 (2.5 µM) 0, Cc1cc(Nc2cc(Cl)nc(Oc3ccc([N+](=O)[O-])cc3)n2)n[nH]1 [Autophinib] (2.5 µM) 0, CN1CCN(c2ccc(Nc3ncc4nc(Nc5ccccc5)n([C@@H]5CCN(S(=O)(=O)C6CC6)C5)c4n3)cc2)CC1 (2.5 µM) 0, Cc1c(CN2CCN(S(C)(=O)=O)CC2)sc2c(N3CCOCC3)nc(-c3cnc(N)nc3)nc12 (2.5 µM) 0, O=C(NCCCNc1nc(Nc2cccc(NC(=O)N3CCCC3)c2)ncc1I)c1cccs1 (2.5 µM) 0, O=C(/C=C/c1ccc(O[C@@H]2O[C@H](CO)[C@@H](O)[C@H](O)[C@H]2O[C@@H]2OC[C@](O)(CO)[C@H]2O)cc1)c1ccc(O)cc1O [Isoliquiritin apioside] (10 µM) 0, O=C1NC(=O)/C(=C/c2ccc3c(c2)OC(F)(F)O3)S1 (10 µM) 0
